The experiment addresses T1, Disabled-2 (Dab2) (mouse (endogenous in primary aortic SMC)) (UniProt P98078).
T1 sequence: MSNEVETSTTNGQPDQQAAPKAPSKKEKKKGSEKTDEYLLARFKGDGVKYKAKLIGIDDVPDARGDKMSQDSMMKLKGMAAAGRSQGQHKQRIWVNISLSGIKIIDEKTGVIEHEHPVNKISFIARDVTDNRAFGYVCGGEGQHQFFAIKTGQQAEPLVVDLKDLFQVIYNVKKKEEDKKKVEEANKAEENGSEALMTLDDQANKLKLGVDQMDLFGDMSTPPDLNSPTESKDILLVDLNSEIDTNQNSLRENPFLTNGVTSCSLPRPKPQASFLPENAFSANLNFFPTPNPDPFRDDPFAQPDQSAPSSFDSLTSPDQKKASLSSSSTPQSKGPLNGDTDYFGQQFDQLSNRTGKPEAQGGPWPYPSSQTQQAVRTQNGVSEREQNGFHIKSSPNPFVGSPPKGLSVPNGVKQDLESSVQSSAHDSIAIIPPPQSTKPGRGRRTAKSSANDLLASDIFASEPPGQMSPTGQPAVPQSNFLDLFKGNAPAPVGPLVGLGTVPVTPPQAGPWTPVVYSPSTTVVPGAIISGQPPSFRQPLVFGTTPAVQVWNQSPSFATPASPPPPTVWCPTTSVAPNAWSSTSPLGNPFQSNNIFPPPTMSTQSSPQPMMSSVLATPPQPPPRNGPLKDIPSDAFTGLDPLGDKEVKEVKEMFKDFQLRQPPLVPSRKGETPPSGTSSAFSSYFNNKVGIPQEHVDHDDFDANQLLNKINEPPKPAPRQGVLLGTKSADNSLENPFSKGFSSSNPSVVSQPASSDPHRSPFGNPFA
As to the kind of experiment: co-IP; primary aortic SMC (wild type or Lrp1^Y63F), starved 24 hr, 10 ng/ml PDGF-BB for 10 min, cross-linked with 0.05 µM DSP for 30 min, lysed in PBS with 1% TritonX; immunoprecipitation with antibodies against Shc1 or Dab2, immunoblot for LRP1. (Immunoblotting shows a protein as a band on a membrane.)

These are yes or no findings as the source states them, for the method shown. In cells and extracts the contact can be indirect. A result given as binding can be weak or reduced; the word gives no strength.

Consider “Lrp1 Y63F (knock-in mutant, tyrosine of the distal NPxY motif replaced with phenylalanine) (receptor)”, for which the binding result is given as “binds”.

Values taken from article PMC5690284.
